PubChem BioAssay AID2685 (National Center for Advancing Translational Sciences (NCATS), 2010)
Some of the results follow. Further columns of the screen follow, without active or inactive calls. Most of these compounds were active or inconclusive in the main read-out, so they are no random draw. The note in brackets gives the kind of curve behind each potency; many fits are weak.

Assay: qHTS Assay for Lipid Storage Modulators in Drosophila S3 Cells;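 for cell number change: cells counted by Cell Tracker Red CMTPX staining in the red channel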
Conditions: BODIPY lipid droplet fluorescence, 18-24 h; for cell number change: measured here: cell count max response, cells fed with added oleic acid
Summary of the method: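 Drosophila S3 cells loaded with oleic acid (400 uM, as added) and compounds at several concentrations; lipid droplets imaged by 488-nm laser-scanning cytometry, 500–530 nm intensity and object ratio to cell channel. Percent activity normalized to 20 uM Triacsin C.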

[1] = measured here: cell number channel AC50, cells fed with added oleic acid
[2] = measured here: lipid fluorescence (Fed channel) AC50, cells fed with added oleic acid

SMILES	cell number change [%]	AC50 [1]	AC50 [2]
O=C(NCCN1CCOCC1)/C(=C\c1ccc(F)cc1)NC(=O)c1ccccc1	38	9.2 µM [rising, partial curve]	29.1 µM [rising, single point]
O=C1CCCC2=C1C(c1ccco1)Nc1ccc3ccccc3c12 (stereo unspecified)	-18.6	–	20.6 µM [falling, single point]
COc1ccc(OC)c(S(=O)(=O)N2CCCCC2C(=O)O)c1 (stereo unspecified)	-29.9	0.231 µM [falling, full curve, poor fit]	0.731 µM [falling, full curve]
COc1ccc(/C=N/NC(=O)c2ccc3c(c2)OCO3)cc1	37	25.9 µM [rising, single point]	0.206 µM [rising, full curve, poor fit]
CCNc1nc(SC)nc(N(C#N)CC(=O)OC)n1	46.3	6.51 µM [rising, partial curve, poor fit]	5.17 µM [rising, single point]
Fc1ccc(/C=C2\CCCC3=C2Nc2ncnn2C3c2ccc(F)cc2)cc1 (stereo unspecified)	-42.1	1.3 µM [falling, full curve, poor fit]	0.731 µM [falling, full curve, poor fit]
Cc1noc(C)c1S(=O)(=O)N1CCC(C(=O)c2ccccc2)CC1	-21.3	–	–
NNC(=O)Cn1nnc(-c2ccc(C(F)(F)F)cc2)n1	27.7	–	–
O=C(OCc1ccc(O)cc1)c1c(-c2ccsc2)oc2ccc(N3CCOCC3)cc12	-12.9	–	–
Cc1cc(Nc2ccc(Cl)cc2)n2ncnc2n1	-2.12	–	16.4 µM [falling, single point]
O=c1[nH]cnc(O)c1C(c1ccc2c(c1)OCO2)c1c(O)nc[nH]c1=O	-20	–	0.92 µM [falling, full curve, poor fit]
O=C(CN1C(=O)NC2(CCCc3ccccc32)C1=O)NCC(F)(F)F (stereo unspecified)	11.3	–	5.8 µM [falling, single point]
Cc1nn(-c2ccccc2)c(N2CCCCC2)c1/C=N/O	-36.7	–	–
Oc1ccc(/C=N/N(c2ccccc2)c2ccccc2)cc1O	14.6	–	0.58 µM [falling, single point]
O=C(CSc1nnc(CNC(=O)c2cccs2)o1)NCc1ccc(F)cc1	1.76	–	1.16 µM [rising, full curve, poor fit]
CCOC(=O)C1(Cc2cccc(Cl)c2)CCCN(C(=O)CCSC)C1 (stereo unspecified)	-30.2	5.17 µM [falling, full curve, poor fit]	7.31 µM [falling, partial curve]
Cc1cccc(N2CCN(C(=O)Cn3sc4nc(C)cc(C)c4c3=O)CC2C)c1 (stereo unspecified)	-60	20.6 µM [falling, partial curve, poor fit]	0.0184 µM [falling, full curve, poor fit]
COc1ccccc1-n1c(=S)sc2c(=O)n(Cc3ccco3)c(SC)nc21	-22.4	–	16.4 µM [rising, single point]
CCS(=O)(=O)N1CCN(c2ccccn2)CC1	1.65	–	–
CC1=NN(C(N)=S)C(=O)C1N=Nc1cccc([N+](=O)[O-])c1 (stereo unspecified)	45.1	29.1 µM [rising, single point]	–

Full records from above. Order of values: cell number change [%] | AC50 [1] | AC50 [2]
CCNc1nc(SC)nc(N(C#N)CC(=O)OC)n1 is listed as 46.3 | 6.51 µM [rising, partial curve, poor fit] | 5.17 µM [rising, single point]
Cc1noc(C)c1S(=O)(=O)N1CCC(C(=O)c2ccccc2)CC1 is listed as -21.3 | – | –

Next compounds follow.

SMILES	cell number change [%]	AC50 [1]	AC50 [2]
CCCCNC(=O)c1cc2cccc([N+](=O)[O-])c2[nH]1	11.2	–	0.461 µM [rising, full curve]
CC1CCCC(NC(=O)COC(=O)c2ccc3ncsc3c2)C1C (stereo unspecified)	29.2	–	6.51 µM [rising, partial curve, poor fit]
COCCn1c(CN(Cc2ccccc2)Cc2ccccc2)nc2c1c(=O)n(C)c(=O)n2C	14.1	–	–
O=C(CCS(=O)(=O)c1ccc(Cl)cc1)NCCc1c[nH]c2ccccc12	8.47	0.082 µM [rising, full curve, poor fit]	6.51 µM [rising, partial curve, poor fit]
COc1ccc(/C=N/NC(=O)c2ccn[nH]2)cc1CSc1ccccn1	-2.29	–	0.651 µM [rising, single point]
Cc1ccc(C)c(S(=O)(=O)c2c(N)n(/N=C/c3ccco3)c3nc4ccccc4nc23)c1	-22	–	1.64 µM [rising, partial curve]
CC(C)NC(=O)C(=O)NCCN1CCN(C(=O)c2ccc(C(C)(C)C)cc2)CC1	90.8	29.1 µM [rising, single point]	–
Fc1ccccc1/C=N/NC(=S)Nc1ccc(Cl)cc1Cl	-31.9	16.4 µM [falling, single point]	0.184 µM [falling, partial curve, poor fit]
CN(C)S(=O)(=O)c1cccc(NC(=O)COC(=O)c2cc(=O)c3ccccc3o2)c1	13.2	–	–
O=C(c1cccc(F)c1)N1CCN(C(=O)c2cc3nc(-c4ccco4)cc(C(F)(F)F)n3n2)CC1	-11.4	–	6.51 µM [rising, single point]
O=C(O)c1nn(CCSc2ccccc2F)c(=O)c2ccccc12	7.13	–	–
Cn1nc(C(=O)Nc2cccc(C(=O)NC3CC3)c2)c2ccccc2c1=O	-3.07	–	–
O=C(OCC1COc2ccccc2O1)c1ccccc1F (stereo unspecified)	-12.8	–	6.51 µM [rising, partial curve, poor fit]
CCCCc1nnc(SCc2ccc(OCC)cc2)n1N	4.08	–	0.0164 µM [falling, full curve]
NS(=O)(=O)c1ccc(Nc2nc(-c3ccc(F)cc3)cs2)cc1	45.9	–	–
COc1cccc(NC(=O)N2CCCC2C(=O)NC2CCCCC2)c1 (stereo unspecified)	2.86	–	29.1 µM [rising, single point]
O=C(CN1CCOCC1)Nc1ccc(Cl)cn1	-18	–	29.1 µM [rising, single point]
CCOC(=O)N1CCN(CC(=O)Nc2cc3c(cc2C(C)=O)OCO3)CC1	–	–	6.51 µM [rising, single point]
COc1ccc(C(=O)N/N=C(\C)Cn2cnc([N+](=O)[O-])n2)cc1	13.1	–	16.4 µM [rising, single point]
CCOC(=O)c1cc2sc(C)cc2n1CC(=O)NCc1ccc(F)cc1	-61.5	29.1 µM [falling, single point]	–

Nothing new here: 3 of the compounds above.
SMILES	cell number change [%]	AC50 [1]	AC50 [2]
CCOC(=O)N1CCN(CC(=O)Nc2cc3c(cc2C(C)=O)OCO3)CC1	–	–	6.51 µM [rising, single point]
COc1ccc(C(=O)N/N=C(\C)Cn2cnc([N+](=O)[O-])n2)cc1	13.1	–	16.4 µM [rising, single point]
CCOC(=O)c1cc2sc(C)cc2n1CC(=O)NCc1ccc(F)cc1	-61.5	29.1 µM [falling, single point]	–

Going on with the list.

SMILES	cell number change [%]	AC50 [1]	AC50 [2]
O=C(O)CN=C(NS(=O)(=O)c1ccc(Cl)cc1)c1ccccc1	-23.3	1.16 µM [falling, full curve, poor fit]	18.4 µM [falling, single point]
O=C(CN1C(=O)NC2(CCCCCC2)C1=O)Nc1ccc(Br)cc1Br	33	3.66 µM [rising, full curve, poor fit]	–
Cc1cccc2nc(-c3cccc(NC(=O)Cc4ccccc4)c3)cn12	5.98	0.146 µM [rising, full curve, poor fit]	0.146 µM [rising, full curve, poor fit]
CCCCn1c(N)c(N(CCOC)C(=O)c2cccc(-n3cnnn3)c2)c(=O)[nH]c1=O	-9.5	–	–
O=C(CN1C(=O)CS/C1=C\c1nc(-c2ccc(Cl)cc2)cs1)Nc1cccnc1Cl	28.7	–	–
CCCOc1ccc(CCCN=C(N)N)cc1Cl	-3.51	–	–
COC(=O)c1cc(-c2cccc(OC)c2)c2c(=O)[nH]c(=O)n(C)c2n1	22.5	–	–
CC(C)(C)OC(=O)N1CCN(C(=O)c2[nH]cnc2C(=O)N[C@@H](Cc2ccccc2)C(=O)OCc2ccccc2)CC1	-17.8	–	0.116 µM [falling, full curve, poor fit]
O=[N+]([O-])c1ccc([N+](=O)[O-])c(Nc2ccc(N3CCOCC3)cc2)c1	118	–	–
Cc1ccc(C)c(N2CCN(c3ccc(N4C(=O)COCC4=O)cc3[N+](=O)[O-])CC2)c1	-19.5	2.59 µM [falling, single point]	1.84 µM [falling, partial curve, poor fit]
C=CCn1c(C(CCCC)CC(C)O)n[nH]c1=S (stereo unspecified)	-24.4	–	5.8 µM [falling, single point]
O=C(O)c1ccc(S(=O)(=O)c2ccc3c(c2)C(=O)N(c2ccc(Br)cc2)C3=O)cc1	16.7	–	–
CC(C)=CCSc1nnc([C@@H](NC(=O)OC(C)(C)C)C(C)C)o1	20.6	0.82 µM [falling, single point]	5.8 µM [falling, single point]
COC(=O)COc1ccc(Cl)cc1C1Nc2ccccc2C(=O)N1c1ccc(OC)cc1 (stereo unspecified)	85.7	–	6.51 µM [falling, single point]
Cc1cccc(-c2cc3c(N=O)c4ccccc4c-3n[nH]2)c1	9.01	–	0.259 µM [rising, partial curve, poor fit]
COc1ccc(/C=N\NC(=O)c2ccccc2Cl)cc1COc1c(F)c(F)c(F)c(F)c1F	-32	0.206 µM [falling, full curve, poor fit]	–
O=C(Nc1ccccc1N1CCOCC1)c1ccncc1	-20.9	0.731 µM [falling, full curve, poor fit]	0.82 µM [falling, single point]
CCNc1ccc(S(=O)(=O)N(C)C)cc1NCC(=O)Nc1ccc(Br)cc1F	-8.12	–	29.1 µM [falling, single point]
Cc1cc(CCN2CCC(=O)NC2=S)ccc1OC(C)C	19.5	1.16 µM [rising, full curve, poor fit]	–
O=C(COc1ccc(Cl)cc1Cl)NCc1ccco1	–	0.0164 µM [falling, full curve, poor fit]	–
